Measured values taken from patent publication US10952434B2, “Compositions and methods for attracting insects” (The United States of America, as Represented by the …, priority 2016, dated 2021).
Some results were stated once for a whole list of compounds, not compound by compound. For at least one compound, name, drawing or mass did not settle the structure.

Tested on: adult female Aedes aegypti mosquitoes
Assay: Semi-field trial, baits deployed in huts or tents
Format: in vivo
Conditions: semi-field conditions; 20-30 mosquitoes released into huts

| SMILES | trapping |
| --- | --- |
| C1CCC2(C1)OCCO2 [Compound I-90] | > 70% |
| CC1COC(C)(c2ccc3c(c2)C(C)(C)CCC3(C)C)O1 (centres unmarked) [Okoumal] | > 70% |
